{"source": "PubChem BioAssay AID624156", "about": "(Broad Institute, 2012)", "note": "Hit rate of the full screen: of about 46,000 compounds, about 900 (2%) were called active. Inconclusive means that the source gave no clear call. Such entries were picked first, then a sample of the others. No stated cut-off is given here; in the data, active means ROS induction above about 79% (passing the limit was not always enough); inconclusive means no clear call, values can overlap the other calls."}
{"test": "ROS inducers in U2OS cancer cells, primary screen, cell-based, H2DCF-DA fluorescence (AID 624156);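 further: 0% = DMSO vehicle median and 100% = reference compound median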", "conditions": "at 10 µM, hits give high values"}
{"smiles": "c1ccc(Nc2ncnc3sc4c(c23)CCCC4)cc1", "ROS induction (% of piperlongumine)": "active: 103%"}
{"smiles": "C[C@@H]1CN([C@@H](C)CO)C(=O)c2cccc(N(C)C)c2O[C@H]1CN(C)Cc1ccc(C(=O)Nc2ccccc2N)cc1", "ROS induction (% of piperlongumine)": "inactive: 6.42%"}
{"smiles": "CN1C(=O)C2C=CC=CC2N=C1SCc1ccccc1F", "note": "(stereo unspecified)", "ROS induction (% of piperlongumine)": "inconclusive: 129%"}
{"smiles": "C[C@H]1CN([C@@H](C)CO)C(=O)CCCn2nncc2CO[C@H]1CN(C)C(=O)Nc1ccc(C(C)(C)C)cc1", "ROS induction (% of piperlongumine)": "inactive: 0.222%"}
{"smiles": "Cc1c(-c2ccccc2)nc2sc3c(c2c1N)CCCC3", "ROS induction (% of piperlongumine)": "active: 91.7%"}
{"smiles": "CCc1cccc(CC)c1NC(=S)Nc1ccc(C)cc1", "ROS induction (% of piperlongumine)": "inactive: -2.36%"}
{"smiles": "COc1cccc2cc(C(=O)CC3(O)C(=O)N(Cc4ccccc4)c4ccc(Br)cc43)c(=O)oc12", "note": "(stereo unspecified)", "ROS induction (% of piperlongumine)": "inconclusive: 394%"}
{"smiles": "O=C1N(CCS(=O)(=O)c2ccccc2)Cc2ccccc2C[C@@]12COC(c1ccc(OCCCO)cc1)=N2", "ROS induction (% of piperlongumine)": "inconclusive: 101%"}
{"smiles": "COc1ccc(/C=N/NC(=O)CCCCCCC(=O)Nc2ccccc2O)cc1", "ROS induction (% of piperlongumine)": "inconclusive: 149%"}
{"smiles": "COc1ccccc1NC(=O)Cn1nnc(-c2cccs2)n1", "ROS induction (% of piperlongumine)": "inconclusive: 94.4%"}
{"smiles": "COc1ccc(NC(=O)N(C)C[C@@H]2OCCCC[C@@H](C)Oc3ccc(NC(=O)Nc4c(C)noc4C)cc3C(=O)N([C@H](C)CO)C[C@@H]2C)cc1", "ROS induction (% of piperlongumine)": "inconclusive: 75.8%"}
{"smiles": "CC(=O)Oc1ccc(C2OC(=O)c3ccccc3N2C(C)=O)cc1", "note": "(stereo unspecified)", "ROS induction (% of piperlongumine)": "inconclusive: 77.5%"}
{"smiles": "O=C(CC1NCCNC1=O)Nc1cccc([N+](=O)[O-])c1", "note": "(stereo unspecified)", "ROS induction (% of piperlongumine)": "inconclusive: 430%"}
{"smiles": "O=C(Nc1ccc(OCc2ccccc2)cc1)N1CCN(c2ccccn2)CC1", "ROS induction (% of piperlongumine)": "inactive: -15.1%"}
{"smiles": "CCOC(=O)c1sc2ncn3c(-c4ccc(C)cc4)nnc3c2c1C", "ROS induction (% of piperlongumine)": "active: 198%"}
{"smiles": "CCc1c(C)c(C#N)c2[nH]c3ccccc3n2c1=O", "ROS induction (% of piperlongumine)": "inconclusive: 85.9%"}
{"smiles": "CC(C)NC(=O)Nc1ccc2c(c1)C(=O)N([C@@H](C)CO)C[C@H](C)[C@H](CN(C)CC1CCCCC1)O2", "ROS induction (% of piperlongumine)": "inactive: -1.06%"}
{"smiles": "C[C@@H]1CN([C@H](C)CO)C(=O)Cc2cc(NS(=O)(=O)c3ccc(Cl)cc3)ccc2O[C@@H]1CN(C)Cc1ccc(Oc2ccccc2)cc1", "ROS induction (% of piperlongumine)": "active: 86%"}
{"smiles": "C[C@H](CO)N1C[C@H](C)[C@H](CN(C)C(=O)NC2CCCC2)Oc2ncc(-c3cc4ccccc4o3)cc2C1=O", "ROS induction (% of piperlongumine)": "inconclusive: 77.7%"}
{"smiles": "CC(C)NC(=O)Nc1cccc2c1O[C@H](CN(C)Cc1ccc(C(=O)Nc3ccccc3N)cc1)[C@H](C)CN([C@H](C)CO)C2=O", "ROS induction (% of piperlongumine)": "inactive: -0.404%"}
{"smiles": "C[C@H](CO)N1C[C@H](C)[C@@H](CN(C)Cc2ccc(-c3ccccc3)cc2)Oc2ccc(N(C)C)cc2C1=O", "ROS induction (% of piperlongumine)": "active: 93.5%"}
{"smiles": "O=C1S/C(=C\\c2ccc(N3CCOCC3)o2)C(=O)N1c1ccccc1", "ROS induction (% of piperlongumine)": "inconclusive: 82.5%"}
{"smiles": "CSc1ccc(S(=O)(=O)Nc2c(C)cc(OCC(=O)N3CCOCC3)cc2C)cc1", "ROS induction (% of piperlongumine)": "inactive: -6.83%"}
{"smiles": "O=C(N1CCOc2ccccc21)n1ccnc1", "ROS induction (% of piperlongumine)": "inconclusive: 84.4%"}
{"smiles": "COc1ccc(S(=O)(=O)Nc2ccc3c(c2)C(=O)N([C@H](C)CO)C[C@H](C)[C@H](CN(C)S(=O)(=O)c2ccc(OC)cc2)OCCCC[C@@H](C)O3)cc1", "ROS induction (% of piperlongumine)": "inconclusive: 76.8%"}
{"smiles": "Cc1cc(C(=O)Nc2cccc3c2O[C@@H](CN(C)Cc2ccc(-c4ccccc4)cc2)[C@H](C)CN([C@@H](C)CO)C3=O)n(C)n1", "ROS induction (% of piperlongumine)": "inconclusive: 81.5%"}
{"smiles": "Oc1oc(-c2ccco2)nc1C=Nc1ccccc1", "ROS induction (% of piperlongumine)": "inconclusive: 80.4%"}
{"smiles": "O=C1O[C@H](c2ccccc2)[C@H](c2ccccc2)N2[C@H]1[C@@H](C(=O)N1CCCCCCC1)[C@]1(C(=O)Nc3ccc(C#CC4(O)CCCCCC4)cc31)[C@H]2c1ccccc1OCCO", "ROS induction (% of piperlongumine)": "inactive: 49.6%"}
{"smiles": "C[C@H](CO)N1C[C@H](C)[C@@H](CN(C)Cc2ccc(Oc3ccccc3)cc2)Oc2c(NC(=O)c3cnccn3)cccc2C1=O", "ROS induction (% of piperlongumine)": "active: 134%"}
{"smiles": "CC(=O)OC1CCC2C3CCc4cc(O)ccc4C3CCC12C", "note": "(stereo unspecified)", "ROS induction (% of piperlongumine)": "inconclusive: 118%"}
{"smiles": "C[C@@H]1CN([C@H](C)CO)C(=O)c2cc(NS(=O)(=O)c3ccc(F)cc3)ccc2O[C@H]1CN(C)Cc1ccc(-c2ccccc2)cc1", "ROS induction (% of piperlongumine)": "inactive: 32.5%"}
{"smiles": "Cc1cccc(CN(C)C[C@@H]2Oc3ncc(-c4ccccc4)cc3C(=O)N([C@H](C)CO)C[C@@H]2C)c1", "ROS induction (% of piperlongumine)": "inactive: 33.6%"}
{"smiles": "COc1cc(C2NC(=S)NC(c3ccccc3)=C2C(=O)c2ccccc2)cc(I)c1OCCO", "note": "(stereo unspecified)", "ROS induction (% of piperlongumine)": "inactive: 6.4%"}
{"smiles": "O=C(Cn1cnc2scc(-c3cccc([N+](=O)[O-])c3)c2c1=O)Nc1ccc(F)c(Cl)c1", "ROS induction (% of piperlongumine)": "inactive: 17%"}
{"smiles": "Nc1cc(C(F)(F)F)ccc1Sc1nc2ccccc2s1", "ROS induction (% of piperlongumine)": "inactive: 1.97%"}
{"smiles": "COc1ccc(Cc2nccc3cc(OC)c(OC)cc23)cc1OC", "ROS induction (% of piperlongumine)": "inactive: 10.8%"}
{"smiles": "CC[n+]1c(C=C2C=C(C)CC(C)(C)C2)oc2ccccc21", "ROS induction (% of piperlongumine)": "inconclusive: 139%"}
{"smiles": "CS(=O)c1sc(C(=O)OCc2ccccc2)c2c1C(=O)CC(C)(C)C2", "note": "(stereo unspecified)", "ROS induction (% of piperlongumine)": "inactive: -0.121%"}
{"smiles": "C[C@@H]1CN([C@H](C)CO)C(=O)c2cccc(NS(=O)(=O)c3cccs3)c2O[C@@H]1CN(C)C(=O)Nc1ccc2c(c1)OCO2", "ROS induction (% of piperlongumine)": "inactive: 1.12%"}
{"smiles": "O=C(Nc1nccs1)C1CCCN(C(=O)c2cnn(-c3ccccc3)c2-n2cccc2)C1", "note": "(stereo unspecified)", "ROS induction (% of piperlongumine)": "inactive: 4.87%"}
{"smiles": "O=C(Nc1ccc(C(F)(F)F)cc1)c1cnc(N2CCN(c3ccccn3)CC2)c2ccccc12", "ROS induction (% of piperlongumine)": "active: 95.9%"}
{"smiles": "CCOC(=O)[C@H](CCc1ccccc1)N[C@H]1CCc2ccccc2N(CC(=O)O)C1=O", "ROS induction (% of piperlongumine)": "inconclusive: 89.8%"}
{"smiles": "C[C@@H]1CN([C@@H](C)CO)C(=O)Cc2cc(NC(=O)Cc3ccccc3)ccc2O[C@@H]1CN(C)Cc1ccncc1", "ROS induction (% of piperlongumine)": "inconclusive: 77.3%"}
{"smiles": "C[C@@H]1CN([C@H](C)CO)C(=O)Cc2cc(NS(=O)(=O)c3ccc(F)cc3)ccc2O[C@H]1CN(C)Cc1ccc(C(F)(F)F)cc1", "ROS induction (% of piperlongumine)": "active: 207%"}
{"smiles": "O=C(CSc1nc2ccccc2[nH]1)Nc1cccc(Cl)c1", "ROS induction (% of piperlongumine)": "inconclusive: 80.8%"}
{"smiles": "CCC(=O)N1CCN(c2ccc(Cl)cc2NC(=O)COc2ccc(C(C)(C)C)cc2)CC1", "ROS induction (% of piperlongumine)": "inconclusive: 77.1%"}
